The list shows a part of the results.
Key:
Test in all cases: log2 fold change, soluble protein after heating vs DMSO (PISA); higher = thermal stabilisation; K562 cells, 10 uM, 30 min; active = over 0.2 and 3.5 SD of the protein, either way, in both replicates (recomputed)
saracatinib = compound: CN1CCN(CCOc2cc(OC3CCOCC3)c3c(Nc4c(Cl)ccc5c4OCO5)ncnc3c2)CC1 [saracatinib]
Procedure, shortened: (§1)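 Values are thermal stability changes relative to control samples and are taken from duplicates. They are stated as log2 fold changes. Before quantification by TMTpro 16plex LC-MS/MS with equalised channel sums, K562 cells at 2×10^6 cells/mL were treated with 10 μM compound for 30 min, heated in aliquots for 3 min across 48°C-58°C, pooled, extracted in PBS with 0.5% NP-40 at 4°C, and centrifuged at 21,000xg for 90 min to give the soluble supernatant.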

The chains behind the UniProt entries cited, without tags or fusion partners. Where a name states a change or a piece, a line headed by the entry shows the natural chain unless it says otherwise.
UniProt O95544: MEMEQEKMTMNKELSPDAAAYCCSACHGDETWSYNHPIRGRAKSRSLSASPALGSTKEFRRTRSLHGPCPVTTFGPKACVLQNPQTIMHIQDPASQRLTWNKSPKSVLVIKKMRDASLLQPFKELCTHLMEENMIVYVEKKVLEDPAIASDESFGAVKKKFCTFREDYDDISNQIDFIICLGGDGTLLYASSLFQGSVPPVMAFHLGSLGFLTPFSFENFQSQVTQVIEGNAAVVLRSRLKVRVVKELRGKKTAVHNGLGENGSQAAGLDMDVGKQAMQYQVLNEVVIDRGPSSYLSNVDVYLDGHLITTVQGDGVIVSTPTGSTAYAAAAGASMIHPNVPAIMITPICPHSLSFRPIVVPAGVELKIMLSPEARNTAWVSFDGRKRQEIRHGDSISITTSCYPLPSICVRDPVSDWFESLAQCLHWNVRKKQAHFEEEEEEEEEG
UniProt Q9GZZ1: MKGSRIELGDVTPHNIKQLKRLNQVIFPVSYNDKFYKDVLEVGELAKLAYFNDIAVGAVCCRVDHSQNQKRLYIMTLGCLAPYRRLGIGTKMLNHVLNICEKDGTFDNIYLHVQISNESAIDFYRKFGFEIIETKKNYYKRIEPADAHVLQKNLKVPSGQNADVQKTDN
UniProt Q8IW45: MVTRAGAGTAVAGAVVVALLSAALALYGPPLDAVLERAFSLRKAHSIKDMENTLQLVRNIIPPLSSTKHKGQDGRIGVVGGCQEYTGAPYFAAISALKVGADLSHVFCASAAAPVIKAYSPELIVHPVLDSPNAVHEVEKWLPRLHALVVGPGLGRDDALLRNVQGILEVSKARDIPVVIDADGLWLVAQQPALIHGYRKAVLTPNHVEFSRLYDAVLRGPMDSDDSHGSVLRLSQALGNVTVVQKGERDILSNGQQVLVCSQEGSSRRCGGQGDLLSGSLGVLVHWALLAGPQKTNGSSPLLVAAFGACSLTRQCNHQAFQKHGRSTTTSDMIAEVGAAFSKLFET
UniProt Q8N183: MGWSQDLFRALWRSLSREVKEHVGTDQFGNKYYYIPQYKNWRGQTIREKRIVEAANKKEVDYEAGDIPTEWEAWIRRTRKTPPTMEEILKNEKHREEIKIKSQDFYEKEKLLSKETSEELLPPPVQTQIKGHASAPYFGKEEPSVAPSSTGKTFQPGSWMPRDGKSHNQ
UniProt Q9BXJ9: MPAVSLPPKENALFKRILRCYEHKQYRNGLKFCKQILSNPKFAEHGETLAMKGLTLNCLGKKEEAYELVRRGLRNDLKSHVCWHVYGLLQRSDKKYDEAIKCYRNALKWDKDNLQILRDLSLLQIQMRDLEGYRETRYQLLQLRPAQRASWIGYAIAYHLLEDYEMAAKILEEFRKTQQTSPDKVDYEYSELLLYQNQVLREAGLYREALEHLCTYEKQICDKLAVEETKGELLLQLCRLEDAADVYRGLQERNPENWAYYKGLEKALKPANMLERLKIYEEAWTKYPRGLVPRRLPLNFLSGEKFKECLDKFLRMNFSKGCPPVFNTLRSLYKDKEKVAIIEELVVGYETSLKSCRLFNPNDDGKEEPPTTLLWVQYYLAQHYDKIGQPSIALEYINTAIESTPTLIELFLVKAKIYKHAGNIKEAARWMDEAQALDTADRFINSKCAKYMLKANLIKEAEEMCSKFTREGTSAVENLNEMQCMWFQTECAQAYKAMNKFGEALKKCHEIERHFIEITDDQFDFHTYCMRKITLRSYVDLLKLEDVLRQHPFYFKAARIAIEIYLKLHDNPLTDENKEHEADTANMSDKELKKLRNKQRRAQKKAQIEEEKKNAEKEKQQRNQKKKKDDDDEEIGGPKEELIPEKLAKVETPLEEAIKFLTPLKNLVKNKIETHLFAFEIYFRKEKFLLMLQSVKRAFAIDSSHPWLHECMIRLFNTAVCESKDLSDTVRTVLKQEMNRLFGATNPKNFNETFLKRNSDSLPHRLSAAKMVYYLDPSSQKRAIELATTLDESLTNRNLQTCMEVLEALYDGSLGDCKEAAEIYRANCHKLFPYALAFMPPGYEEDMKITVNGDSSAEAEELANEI
UniProt P43490: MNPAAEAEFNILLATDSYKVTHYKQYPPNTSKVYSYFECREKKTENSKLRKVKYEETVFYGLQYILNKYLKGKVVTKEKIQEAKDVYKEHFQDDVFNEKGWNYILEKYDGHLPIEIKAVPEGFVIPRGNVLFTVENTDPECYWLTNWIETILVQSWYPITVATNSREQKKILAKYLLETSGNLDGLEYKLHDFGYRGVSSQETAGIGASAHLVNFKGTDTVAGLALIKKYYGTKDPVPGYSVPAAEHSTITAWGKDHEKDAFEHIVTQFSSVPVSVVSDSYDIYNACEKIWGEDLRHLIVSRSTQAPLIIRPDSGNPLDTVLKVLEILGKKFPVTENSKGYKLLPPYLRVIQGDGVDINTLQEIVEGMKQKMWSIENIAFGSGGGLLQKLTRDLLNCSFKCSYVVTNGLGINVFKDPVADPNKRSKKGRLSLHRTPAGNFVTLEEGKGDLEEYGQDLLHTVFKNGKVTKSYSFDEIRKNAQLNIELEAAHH
UniProt Q8NCW5: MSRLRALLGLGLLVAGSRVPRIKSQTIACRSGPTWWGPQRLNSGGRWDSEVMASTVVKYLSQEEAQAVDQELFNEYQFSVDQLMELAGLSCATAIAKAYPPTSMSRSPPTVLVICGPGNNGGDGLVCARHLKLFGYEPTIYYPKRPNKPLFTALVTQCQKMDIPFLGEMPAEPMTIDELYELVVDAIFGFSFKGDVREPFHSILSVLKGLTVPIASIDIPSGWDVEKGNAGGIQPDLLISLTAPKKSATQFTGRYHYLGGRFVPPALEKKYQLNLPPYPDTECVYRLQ
UniProt O75380, whole entry, looked up: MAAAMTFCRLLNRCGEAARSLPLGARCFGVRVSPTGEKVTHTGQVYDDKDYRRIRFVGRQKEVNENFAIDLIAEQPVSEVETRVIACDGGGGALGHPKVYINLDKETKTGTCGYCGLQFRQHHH
UniProt Q969V3: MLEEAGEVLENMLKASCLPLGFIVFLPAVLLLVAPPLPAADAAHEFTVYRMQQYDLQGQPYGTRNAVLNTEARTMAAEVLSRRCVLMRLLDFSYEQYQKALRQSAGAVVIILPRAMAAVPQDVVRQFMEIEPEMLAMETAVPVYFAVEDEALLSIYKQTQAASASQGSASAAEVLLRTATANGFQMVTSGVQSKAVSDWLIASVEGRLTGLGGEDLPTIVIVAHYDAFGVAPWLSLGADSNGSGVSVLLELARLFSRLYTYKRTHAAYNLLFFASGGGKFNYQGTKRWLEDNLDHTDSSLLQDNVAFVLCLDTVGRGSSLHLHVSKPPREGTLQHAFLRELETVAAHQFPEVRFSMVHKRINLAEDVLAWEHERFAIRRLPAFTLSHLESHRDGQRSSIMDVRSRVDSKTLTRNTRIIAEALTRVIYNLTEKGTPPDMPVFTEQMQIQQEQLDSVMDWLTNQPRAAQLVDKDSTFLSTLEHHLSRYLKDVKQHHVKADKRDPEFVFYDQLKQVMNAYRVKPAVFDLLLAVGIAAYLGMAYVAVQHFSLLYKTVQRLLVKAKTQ
UniProt Q6PIU2: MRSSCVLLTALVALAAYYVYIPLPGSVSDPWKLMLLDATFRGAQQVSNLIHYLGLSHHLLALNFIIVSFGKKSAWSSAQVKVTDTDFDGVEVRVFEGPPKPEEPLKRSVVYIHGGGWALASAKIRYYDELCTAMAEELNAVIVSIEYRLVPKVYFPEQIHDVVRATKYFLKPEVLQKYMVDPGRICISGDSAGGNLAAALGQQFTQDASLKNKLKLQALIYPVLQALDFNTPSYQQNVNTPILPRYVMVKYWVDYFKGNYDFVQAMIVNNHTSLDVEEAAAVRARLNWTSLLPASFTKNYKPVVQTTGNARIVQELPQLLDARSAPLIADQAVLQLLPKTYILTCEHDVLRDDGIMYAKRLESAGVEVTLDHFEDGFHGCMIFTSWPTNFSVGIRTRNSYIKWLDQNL
UniProt Q5VZE5: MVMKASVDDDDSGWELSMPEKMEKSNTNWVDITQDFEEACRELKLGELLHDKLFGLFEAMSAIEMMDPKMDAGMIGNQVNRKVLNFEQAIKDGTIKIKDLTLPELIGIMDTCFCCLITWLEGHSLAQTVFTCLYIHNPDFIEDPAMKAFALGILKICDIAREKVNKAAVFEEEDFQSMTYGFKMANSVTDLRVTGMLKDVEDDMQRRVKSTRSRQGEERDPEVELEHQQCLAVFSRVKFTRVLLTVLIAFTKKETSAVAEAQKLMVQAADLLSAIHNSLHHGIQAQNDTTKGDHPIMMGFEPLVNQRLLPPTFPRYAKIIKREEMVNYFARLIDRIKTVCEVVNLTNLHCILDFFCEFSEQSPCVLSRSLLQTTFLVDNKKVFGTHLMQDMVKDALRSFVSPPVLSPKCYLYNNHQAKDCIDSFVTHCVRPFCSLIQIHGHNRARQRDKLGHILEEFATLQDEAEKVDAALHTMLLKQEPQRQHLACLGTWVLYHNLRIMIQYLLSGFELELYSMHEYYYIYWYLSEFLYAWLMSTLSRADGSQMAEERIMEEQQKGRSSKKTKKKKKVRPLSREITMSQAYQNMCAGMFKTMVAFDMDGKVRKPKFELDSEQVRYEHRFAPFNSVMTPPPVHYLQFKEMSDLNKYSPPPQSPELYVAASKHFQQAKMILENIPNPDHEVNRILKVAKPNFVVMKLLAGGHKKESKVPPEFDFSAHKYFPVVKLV
UniProt P42695: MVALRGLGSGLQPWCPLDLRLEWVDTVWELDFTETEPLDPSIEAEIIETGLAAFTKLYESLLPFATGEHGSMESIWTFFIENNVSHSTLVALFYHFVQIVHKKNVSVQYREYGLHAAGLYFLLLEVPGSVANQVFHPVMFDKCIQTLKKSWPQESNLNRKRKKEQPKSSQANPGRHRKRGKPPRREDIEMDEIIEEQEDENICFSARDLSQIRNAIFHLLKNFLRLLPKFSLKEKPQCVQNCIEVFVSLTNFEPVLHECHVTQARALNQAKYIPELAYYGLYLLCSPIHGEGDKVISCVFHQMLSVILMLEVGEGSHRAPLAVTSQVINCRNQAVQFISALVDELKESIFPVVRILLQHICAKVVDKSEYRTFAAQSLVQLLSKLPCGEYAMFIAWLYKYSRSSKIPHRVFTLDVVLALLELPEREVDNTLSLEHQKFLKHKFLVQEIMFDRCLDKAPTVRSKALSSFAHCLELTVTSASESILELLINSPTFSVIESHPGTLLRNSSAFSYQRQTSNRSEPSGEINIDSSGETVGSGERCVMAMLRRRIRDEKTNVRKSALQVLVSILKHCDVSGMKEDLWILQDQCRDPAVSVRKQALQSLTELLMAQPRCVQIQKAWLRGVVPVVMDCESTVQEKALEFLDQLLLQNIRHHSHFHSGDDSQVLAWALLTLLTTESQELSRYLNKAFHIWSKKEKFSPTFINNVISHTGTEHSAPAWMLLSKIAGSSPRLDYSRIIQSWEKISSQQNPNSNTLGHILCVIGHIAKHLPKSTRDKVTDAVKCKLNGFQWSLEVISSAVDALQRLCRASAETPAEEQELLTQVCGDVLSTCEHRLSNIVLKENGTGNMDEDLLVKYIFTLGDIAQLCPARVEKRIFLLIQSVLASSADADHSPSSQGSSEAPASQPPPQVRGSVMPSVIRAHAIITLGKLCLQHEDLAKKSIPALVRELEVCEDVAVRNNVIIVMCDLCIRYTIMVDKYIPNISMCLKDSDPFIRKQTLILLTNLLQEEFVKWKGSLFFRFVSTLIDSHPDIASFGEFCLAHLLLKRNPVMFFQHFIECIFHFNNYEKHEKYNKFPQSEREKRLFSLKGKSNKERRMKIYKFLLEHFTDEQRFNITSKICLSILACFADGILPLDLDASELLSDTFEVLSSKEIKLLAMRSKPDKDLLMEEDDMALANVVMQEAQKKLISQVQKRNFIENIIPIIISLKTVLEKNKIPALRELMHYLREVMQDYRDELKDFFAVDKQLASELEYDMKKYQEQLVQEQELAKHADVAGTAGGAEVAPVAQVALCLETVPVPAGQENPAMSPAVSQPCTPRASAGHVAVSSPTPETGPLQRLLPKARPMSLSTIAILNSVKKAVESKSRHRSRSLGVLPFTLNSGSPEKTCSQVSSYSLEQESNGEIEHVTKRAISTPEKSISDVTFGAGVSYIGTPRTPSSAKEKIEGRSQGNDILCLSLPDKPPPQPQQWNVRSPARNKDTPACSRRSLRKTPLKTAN
UniProt Q9NXR1: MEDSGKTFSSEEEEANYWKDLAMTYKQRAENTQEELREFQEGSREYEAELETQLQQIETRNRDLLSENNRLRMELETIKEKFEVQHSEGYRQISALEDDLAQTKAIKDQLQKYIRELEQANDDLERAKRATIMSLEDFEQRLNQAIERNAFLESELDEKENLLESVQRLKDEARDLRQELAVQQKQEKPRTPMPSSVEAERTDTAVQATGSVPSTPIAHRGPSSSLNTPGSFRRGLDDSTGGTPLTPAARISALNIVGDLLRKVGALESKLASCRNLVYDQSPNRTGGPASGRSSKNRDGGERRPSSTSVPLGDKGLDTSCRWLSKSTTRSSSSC
UniProt O95139, whole entry, looked up: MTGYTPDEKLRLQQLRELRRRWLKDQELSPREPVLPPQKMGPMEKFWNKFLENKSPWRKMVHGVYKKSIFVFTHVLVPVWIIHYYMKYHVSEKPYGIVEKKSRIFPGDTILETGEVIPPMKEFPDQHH

sotrastaurin = compound: CN1CCN(c2nc(C3=C(c4c[nH]c5ccccc45)C(=O)NC3=O)c3ccccc3n2)CC1 [sotrastaurin]
Procedure, shortened: as §1

alvocidib = compound: CN1CC[C@H](c2c(O)cc(O)c3c(=O)cc(-c4ccccc4Cl)oc23)[C@H](O)C1 [alvocidib]
Procedure, shortened: as §1

Tubastatin A = compound: CN1CCc2c(c3ccccc3n2Cc2ccc(C(=O)NO)cc2)C1 [Tubastatin A]
Procedure, shortened: as §1

[1] = compound: CNC(=O)C1=CC=CC=C1NC2=NC(=NC=C2Cl)NC3=C(C=C(C=C3)N4CCOCC4)OC
Procedure, shortened: as §1

defactinib = compound: CNC(=O)c1ccc(Nc2ncc(C(F)(F)F)c(NCc3nccnc3N(C)S(C)(=O)=O)n2)cc1 [defactinib]
Procedure, shortened: as §1

rucaparib = compound: CNCc1ccc(-c2[nH]c3cc(F)cc4c3c2CCNC4=O)cc1 [rucaparib]
Procedure, shortened: as §1

[2] = compound: CNc1nc(-c2ccc3c(N)n[nH]c3c2)cc(N2C[C@@H](C(=O)NC3CCCCC3)CC[C@H]2C)n1
Procedure, shortened: as §1

encorafenib = compound: COC(=O)N[C@@H](C)CNc1nccc(-c2cn(C(C)C)nc2-c2cc(Cl)cc(NS(C)(=O)=O)c2F)n1 [encorafenib]
Procedure, shortened: as §1

[3] = compound: COC(=O)[C@H](CCSC)NC(=O)C1=C(C=C(C=C1)NC[C@H](CS)N)C2=CC=CC=C2
Procedure, shortened: as §1

Measured: log2 fold change

NADK (UniProt O95544)
inactive: saracatinib 0.012 | sotrastaurin 0.04 | alvocidib -0.013 | Tubastatin A 0 | [1] -0.06 | defactinib -0.021 | rucaparib 0.012 | [2] -0.024 | encorafenib -0.014 | [3] 0.041

NDUFB3 (UniProt O43676)
inactive: saracatinib 0.068 | sotrastaurin 0.047 | alvocidib -0.012 | Tubastatin A -0.011 | [1] 0.024 | defactinib 0.001 | rucaparib -0.054 | [2] -0.035 | encorafenib -0.015 | [3] 0.014

NAA50 (UniProt Q9GZZ1)
inactive: saracatinib -0.007 | sotrastaurin -0.026 | alvocidib -0.105 | Tubastatin A 0.024 | [1] -0.019 | defactinib -0.054 | rucaparib 0.015 | [2] -0.006 | encorafenib -0.012 | [3] -0.022

NAXD (UniProt Q8IW45)
inactive: saracatinib 0.077 | sotrastaurin 0.02 | alvocidib 0.016 | Tubastatin A 0.208 | [1] -0.013 | defactinib 0.006 | rucaparib 0.072 | [2] -0.065 | encorafenib -0.019 | [3] 0.009

NCBP1 (UniProt Q09161)
inactive: saracatinib 0.036 | sotrastaurin 0.012 | alvocidib 0 | Tubastatin A -0.027 | [1] -0.013 | defactinib -0.007 | rucaparib 0.006 | [2] -0.013 | encorafenib -0.009 | [3] -0.01

NDUFAF2 (UniProt Q8N183)
inactive: saracatinib 0.015 | sotrastaurin 0.044 | alvocidib -0.028 | Tubastatin A 0 | [1] -0.009 | defactinib -0.018 | rucaparib -0.009 | [2] -0.049 | encorafenib -0.034 | [3] 0.034

NAA15 (UniProt Q9BXJ9)
inactive: saracatinib 0.014 | sotrastaurin 0.017 | alvocidib -0.084 | Tubastatin A -0.012 | [1] -0.002 | defactinib -0.05 | rucaparib -0.035 | [2] -0.02 | encorafenib 0.001 | [3] -0.007

NCOR2 (UniProt C9J0Q5)
inactive: saracatinib 0.06 | sotrastaurin 0.078 | alvocidib -0.239 | Tubastatin A -0.038 | [1] -0.03 | defactinib -0.106 | rucaparib 0.216 | [2] -0.052 | encorafenib 0.044 | [3] 0.043

NACA4P (UniProt Q9BZK3)
inactive: saracatinib 0.169 | sotrastaurin 0.027 | alvocidib -0.04 | Tubastatin A 0.101 | [1] -0.146 | defactinib -0.028 | rucaparib -0.048 | [2] 0 | encorafenib -0.037 | [3] -0.032

NAPRT (UniProt Q6XQN6)
inactive: saracatinib 0.033 | sotrastaurin 0.028 | alvocidib -0.015 | Tubastatin A -0.057 | [1] 0.018 | defactinib -0.013 | rucaparib -0.055 | [2] -0.059 | encorafenib -0.011 | [3] 0.027

N6AMT1 (UniProt Q9Y5N5)
inactive: saracatinib -0.012 | sotrastaurin -0.07 | alvocidib -0.017 | Tubastatin A -0.011 | [1] 0.005 | defactinib 0 | rucaparib -0.032 | [2] 0.022 | encorafenib -0.098 | [3] -0.087

NAMPT (UniProt P43490)
inactive: saracatinib 0.021 | sotrastaurin 0.076 | alvocidib 0.008 | Tubastatin A -0.035 | [1] -0.019 | defactinib 0.003 | rucaparib 0.028 | [2] -0.028 | encorafenib -0.009 | [3] 0.006

NAXE (UniProt Q8NCW5)
inactive: saracatinib 0.012 | sotrastaurin 0.009 | alvocidib -0.007 | Tubastatin A -0.025 | [1] -0.021 | defactinib 0.015 | rucaparib -0.007 | [2] -0.007 | encorafenib -0.028 | [3] -0.018

NAA15, A0A0B4J1W3
inactive: saracatinib 0.063 | sotrastaurin 0.21 | alvocidib -0.036 | Tubastatin A -0.102 | [1] 0.002 | defactinib 0.01 | rucaparib 0.015 | [2] -0.007 | encorafenib 0.023 | [3] 0.083

Two entries drawn at random from the list so far:
NAXE (UniProt Q8NCW5)
inactive: saracatinib 0.012 | sotrastaurin 0.009 | alvocidib -0.007 | Tubastatin A -0.025 | [1] -0.021 | defactinib 0.015 | rucaparib -0.007 | [2] -0.007 | encorafenib -0.028 | [3] -0.018

NAMPT (UniProt P43490)
inactive: saracatinib 0.021 | sotrastaurin 0.076 | alvocidib 0.008 | Tubastatin A -0.035 | [1] -0.019 | defactinib 0.003 | rucaparib 0.028 | [2] -0.028 | encorafenib -0.009 | [3] 0.006

The list continues:

NDUFS6 (UniProt O75380)
inactive: saracatinib 0.08 | sotrastaurin 0.126 | alvocidib 0.061 | Tubastatin A -0.188 | [1] -0.05 | defactinib 0.047 | rucaparib 0.032 | [2] -0.032 | encorafenib -0.057 | [3] 0.08

NCLN (UniProt Q969V3)
inactive: saracatinib -0.038 | sotrastaurin -0.015 | alvocidib -0.01 | Tubastatin A 0.041 | [1] -0.001 | defactinib 0.05 | rucaparib 0.043 | [2] 0.015 | encorafenib 0.038 | [3] 0.003

MYO9B (UniProt Q13459)
inactive: saracatinib -0.082 | sotrastaurin -0.136 | alvocidib 0.048 | Tubastatin A 0.079 | [1] -0.034 | defactinib -0.003 | rucaparib 0.282 | [2] 0.054 | encorafenib 0.208 | [3] -0.015

NCEH1 isoform 2 (UniProt Q6PIU2)
inactive: saracatinib 0.063 | sotrastaurin 0.097 | alvocidib -0.013 | Tubastatin A -0.005 | [1] 0.018 | defactinib -0.019 | rucaparib -0.098 | [2] -0.046 | encorafenib -0.004 | [3] 0.007

NECAP1 (UniProt Q8NC96)
inactive: saracatinib 0.015 | sotrastaurin -0.021 | alvocidib -0.057 | Tubastatin A 0.009 | [1] 0.04 | defactinib -0.09 | rucaparib -0.046 | [2] 0.009 | encorafenib -0.004 | [3] -0.016

NDUFA13 (UniProt Q9P0J0)
inactive: saracatinib 0.015 | sotrastaurin -0.024 | alvocidib -0.069 | Tubastatin A -0.014 | [1] -0.011 | defactinib 0.023 | rucaparib -0.016 | [2] 0.06 | encorafenib -0.005 | [3] 0.024

NAA35 (UniProt Q5VZE5)
inactive: saracatinib 0.029 | sotrastaurin 0.014 | alvocidib -0.083 | Tubastatin A 0.025 | [1] -0.01 | defactinib -0.071 | rucaparib -0.025 | [2] -0.002 | encorafenib 0.042 | [3] 0.013

NEBL isoform 2 (UniProt O76041)
inactive: saracatinib 0.027 | sotrastaurin 0.09 | alvocidib 0.006 | Tubastatin A -0.004 | [1] -0.005 | defactinib -0.049 | rucaparib -0.045 | [2] -0.039 | encorafenib -0.046 | [3] 0.007

NDST1 (UniProt P52848)
inactive: saracatinib 0.03 | sotrastaurin -0.023 | alvocidib 0.009 | Tubastatin A 0.05 | [1] -0.022 | defactinib -0.02 | rucaparib 0.084 | [2] 0.016 | encorafenib -0.075 | [3] 0.013

NDC1 (UniProt Q9BTX1)
inactive: saracatinib 0.015 | sotrastaurin 0.015 | alvocidib -0.049 | Tubastatin A 0.016 | [1] 0.023 | defactinib -0.06 | rucaparib -0.072 | [2] 0 | encorafenib 0.005 | [3] -0.061

NCAPD3 (UniProt P42695)
inactive: saracatinib -0.078 | sotrastaurin -0.07 | alvocidib 0.001 | Tubastatin A 0.05 | [1] -0.022 | defactinib 0.025 | rucaparib 0.084 | [2] -0.005 | encorafenib 0.066 | [3] 0.097

NDE1 isoform 1 (UniProt Q9NXR1)
inactive: saracatinib 0.085 | sotrastaurin -0.008 | alvocidib 0 | Tubastatin A 0.073 | [1] 0.045 | defactinib -0.029 | rucaparib -0.018 | [2] -0.004 | encorafenib -0.02 | [3] 0.003

NCR3LG1 (UniProt Q68D85)
inactive: saracatinib -0.048 | sotrastaurin -0.042 | alvocidib 0.05 | Tubastatin A 0.111 | [1] -0.007 | defactinib -0.132 | rucaparib 0.154 | [2] -0.043 | encorafenib 0.11 | [3] -0.013

NDUFB6 (UniProt O95139)
inactive: saracatinib -0.008 | sotrastaurin 0.025 | alvocidib 0.007 | Tubastatin A -0.016 | [1] 0.004 | defactinib 0.034 | rucaparib -0.022 | [2] -0.051 | encorafenib -0.006 | [3] 0.084

NDUFB5 (UniProt O43674)
inactive: saracatinib 0.079 | sotrastaurin -0.001 | alvocidib 0.005 | Tubastatin A -0.006 | [1] -0.021 | defactinib -0.007 | rucaparib -0.035 | [2] -0.019 | encorafenib 0.008 | [3] 0.035

NDUFS2 (UniProt O75306)
inactive: saracatinib 0.002 | sotrastaurin -0.055 | alvocidib -0.09 | Tubastatin A -0.035 | [1] 0 | defactinib -0.003 | rucaparib -0.024 | [2] 0.003 | encorafenib -0.004 | [3] -0.006

— the supplement of paper PMC10849652
